Reference: patent US20080063623A1 (INTEVERT INTERNATIONAL B V, published 2008)
No constants are given. Whether binding was seen depends on the method and setting. Some binding calls cover weakened binding; strength is not graded here.

What was measured:
[1] = biological target: T1, chicken IL-12 p35 subunit (ChIL-12 p35) (chicken); experiment: co-transfection of COS-7 cells, non-denaturing Western blot of supernatants
T1 sequence: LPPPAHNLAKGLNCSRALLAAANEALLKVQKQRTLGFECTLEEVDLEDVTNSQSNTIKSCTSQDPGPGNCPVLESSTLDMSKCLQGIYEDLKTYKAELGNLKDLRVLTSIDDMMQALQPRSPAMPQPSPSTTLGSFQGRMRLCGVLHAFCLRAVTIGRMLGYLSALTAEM

[2] = biological target: T1, chicken IL-12 p35 subunit (ChIL-12 p35) (chicken); experiment: co-transfection of COS-7 cells; bioactivity of supernatants on chicken spleen cells

B1: chicken IL-12 p40 subunit (ChIL-12 p40) (ligand)
chain: QWKLRENVYVIESEWNDETPAKKVKLTCDTSDEALPVYWKKGTELKGTGKTLTTEVKEFPDAGNYTCLSAKTHEIISYSFFLITKVDSNGQMIRSILKSYKEPSKTFLKCEAKNYSGIFTCSWMTENESPSVKFTIRSLKGSQGDVTCSSPVARTDKSVTEYTAQCQKENYCPFAEEHQPTEMFLEVIDEVEYENYTSSFFIRDIIKPDPPQCQYASTNGTVTWTYPKTWSTPKSYFPLTFRVKVESTKKYKSKVYDADEQSIQIPKTGPKDKISVQARDRYYNSSWSEWSTLCR
notes: also called chicken p40; clone pND89
[1]
  binding: binds
[2]
  binding: binds
